Where “and” joins values, the source holds several entries; their conditions need not be identical. Identical values can stand only once. Counter-ions that a name gives are not always drawn. This is one part of the list. Single values are uncertain, as repeats are few or missing.
Test system: A2780
Experiment: cell growth inhibition ratio vs untreated control (CCK8); higher = stronger inhibition of cell viability
Details: 10 µM; 48 h
Experimental: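 Natural product library (Topscience) screened at 10 µM final concentration for 48 h on ovarian cancer A2780 cells and patient-derived ovarian cancer cells (PDC) in 96-well plates; viability read by CCK8 and reported as inhibition ratio (%) relative to untreated control. Single-dose primary screen.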

**Q.** `O=C1CCC[C@@H]2[C@H]3CCCN4CCC[C@H](CN12)[C@@H]34` [Sophoridine] was tested. Which “cell growth inhibition ratio” value did it give?
**A.** Its value is 0.373%.

**Q.** For `CC(C)=CCC[C@](C)(O)[C@H]1CC[C@]2(C)[C@@H]1[C@H](O)C[C@@H]1[C@@]3(C)CC[C@H](O[C@@H]4O[C@H](CO)[C@@H](O)[C@H](O)[C@H]4O)C(C)(C)[C@@H]3CC[C@]12C` [Ginsenoside Rh2], which “cell growth inhibition ratio” value is on record?
**A.** Its value is -6.86% and 16.2%.

**Q.** `CCC12C=CCN3CC[C@@]4(c5ccc(OC)cc5N(C)[C@H]4[C@@](O)(C(=O)OC)[C@@H]1OC(C)=O)[C@@H]32` (stereo not given in full) [Vindoline] was tested. Which “cell growth inhibition ratio” value did it give?
**A.** Its value is -1.16%.

**Q.** `CC(C)=CCC[C@](C)(O)[C@H]1CC[C@]2(C)[C@@H]1[C@H](O)C[C@@H]1[C@@]3(C)CC[C@H](O)C(C)(C)[C@@H]3[C@@H](O[C@@H]3O[C@H](CO)[C@@H](O)[C@H](O)[C@H]3O)C[C@]12C` [Ginsenoside Rh1] was tested. Which “cell growth inhibition ratio” value did it give?
**A.** Its value is 22.8%.

**Q.** How did the “cell growth inhibition ratio” value turn out when `CC(=O)O[C@H]1C(=O)[C@@]2(C)[C@H]([C@H](OC(=O)c3ccccc3)[C@]3(O)C[C@H](O)C(C)=C1C3(C)C)[C@]1(OC(C)=O)CO[C@@H]1C[C@@H]2O` [Baccatin III] was run?
**A.** The value was 41.4%.

**Q.** For `c1cc2c(cc1[C@H]1OC[C@H]3[C@@H]1CO[C@@H]3c1ccc3c(c1)OCO3)OCO2` [Sesamin], which “cell growth inhibition ratio” value is on record?
**A.** The value was 6.39%.

**Q.** How did the “cell growth inhibition ratio” value turn out when `COC1=C[C@@H]2[C@@H]3Cc4ccc(OC)c(O)c4[C@]2(CCN3C)CC1=O` [Sinomenine hydrochloride] was run?
**A.** Its value is 0.272%.

**Q.** With `CN1[C@@H]2C[C@@H](OC(=O)[C@H](CO)c3ccccc3)C[C@H]1[C@@H]1O[C@@H]12` [Scopolamine HBr trihydrate] as the compound, how does the “cell growth inhibition ratio” value read?
**A.** The value was 4.91%.

**Q.** Which “cell growth inhibition ratio” value does the source give for `CN1[C@@H]2CC[C@H]1C[C@@H](OC(=O)C(CO)c1ccccc1)C2` (stereo not given in full) [Atropine sulfate] here?
**A.** Its value is 5.35%.

**Q.** Which “cell growth inhibition ratio” value does the source give for `C1=C2CCCN[C@H]2[C@@H]2C[C@H]1[C@H]1CCCCN1C2` [Aloperine] here?
**A.** The value was 8.97%.

**Q.** How did the “cell growth inhibition ratio” value turn out when `COc1cc(C(=O)O)cc(OC)c1OC` [Gallic acid trimethyl ether] was run?
**A.** The value was -2.51%.

**Q.** `C[C@H]1C(=O)O[C@@H]2CCN3CC=C(COC(=O)[C@](C)(O)[C@]1(C)O)[C@H]23` [Monocrotaline] was tested. Which “cell growth inhibition ratio” value did it give?
**A.** Its value is 2.97%.

**Q.** Which “cell growth inhibition ratio” value does the source give for `C[C@@H]1CC[C@H]2[C@@H](C)C(=O)O[C@@H]3O[C@@]4(C)CC[C@@H]1[C@]32OO4` [Artemisinin] here?
**A.** The value was -36.6%.

**Q.** Which “cell growth inhibition ratio” value does the source give for `O=C1C=CC[C@@H]2[C@H]3CCCN4CCC[C@@H](CN12)[C@@H]34` [Sophocarpine] here?
**A.** Its value is 2.9%.

**Q.** `C=C(C)[C@H]1Cc2c(ccc3c2O[C@@H]2COc4cc(OC)c(OC)cc4[C@@H]2C3=O)O1` [Rotenone] was tested. Which “cell growth inhibition ratio” value did it give?
**A.** The value was 82.8%.

**Q.** `COC1=C[C@]23CCCN2CCc2cc4c(cc2[C@@H]3[C@@H]1O)OCO4` [Cephalotaxine] was tested. Which “cell growth inhibition ratio” value did it give?
**A.** Its value is 7.74%.

**Q.** Which “cell growth inhibition ratio” value does the source give for `C[C@]12CC[C@H](O)C[C@H]1CC[C@@H]1[C@@H]2CC[C@]2(C)[C@@H](c3ccc(=O)oc3)CC[C@]12O` [Bufalin] here?
**A.** Its value is 85.6%.

**Q.** For `O=c1cccc2n1C[C@@H]1CNC[C@H]2C1` [Cytisine], which “cell growth inhibition ratio” value is on record?
**A.** The value was 1.32%.

**Q.** Which “cell growth inhibition ratio” value does the source give for `CCCCCc1cc(O)cc(O)c1` [Olivetol] here?
**A.** Its value is -2.67%.

**Q.** How did the “cell growth inhibition ratio” value turn out when `CCN1C[C@]2(OC(=O)c3ccccc3NC(C)=O)CC[C@H](OC)[C@@]34[C@@H]2C[C@@H]([C@@H]13)[C@@]1(O)C[C@H](OC)[C@H]2C[C@@H]4[C@]1(O)[C@H]2OC` [Lappaconitine] was run?
**A.** Its value is 7.93%.

**Q.** For `Cc1cc2c(C(C)C)c(O)c(O)c(C=O)c2c(O)c1-c1c(C)cc2c(C(C)C)c(O)c(O)c(C=O)c2c1O` [Gossypol], which “cell growth inhibition ratio” value is on record?
**A.** Its value is 4.98%.

**Q.** `CN1CCc2cc3c(cc2C1C1OC(=O)c2c1ccc1c2OCO1)OCO3` (single isomer, unassigned; (+)) [(+)-Bicuculline] was tested. Which “cell growth inhibition ratio” value did it give?
**A.** Its value is 4.33%.

**Q.** With `CN(C)CCc1ccc(O)cc1` [Hordenine] as the compound, how does the “cell growth inhibition ratio” value read?
**A.** Its value is -5.76%.

**Q.** `NCCc1c[nH]c2ccccc12` [Tryptamine] was tested. Which “cell growth inhibition ratio” value did it give?
**A.** The value was 4.1%.

**Q.** For `CC1=C2[C@H]3OC(=O)[C@@H](C)[C@@H]3CC[C@@]2(C)C=CC1=O` [α-santonin], which “cell growth inhibition ratio” value is on record?
**A.** The value was -1.92%.

**Q.** How did the “cell growth inhibition ratio” value turn out when `CC(C)=CCC[C@@](C)(O)[C@H]1CC[C@]2(C)[C@@H]1[C@H](O)C[C@@H]1[C@@]3(C)CC[C@H](O)C(C)(C)[C@@H]3[C@@H](O[C@@H]3O[C@H](CO)[C@@H](O)[C@H](O)[C@H]3O)C[C@]12C` [(20R)-Ginsenoside Rh1] was run?
**A.** The value was 12%.

**Q.** For `CC(C)=CCOc1c2occc2cc2ccc(=O)oc12` [Imperatorin], which “cell growth inhibition ratio” value is on record?
**A.** Its value is 4.15%.

**Q.** For `COC(=O)C1=CCCN(C)C1` [Arecoline HBr], which “cell growth inhibition ratio” value is on record?
**A.** The value was -1.93%.

**Q.** Which “cell growth inhibition ratio” value does the source give for `COc1cc2c3c(c1OC)-c1ccccc1C[C@H]3N(C)CC2` [Nuciferine] here?
**A.** The value was 7.82%.

**Q.** `COc1ccc(C(=O)O)cc1OC` [Veratric acid] was tested. Which “cell growth inhibition ratio” value did it give?
**A.** The value was 4.91%.

**Q.** For `CC(=O)OC12COC1CC(O)C1(C)C(=O)C(O)C3=C(C)C(O)CC(O)(C(OC(=O)c4ccccc4)C21)C3(C)C` (stereo not given) [10-Deacetylbaccatin III], which “cell growth inhibition ratio” value is on record?
**A.** The value was 72.2%.

**Q.** For `CCC(=O)O[C@H]1CC[C@H]2[C@@H]3CCC4=CC(=O)CC[C@]4(C)[C@H]3CC[C@]12C` [Testosterone propionate], which “cell growth inhibition ratio” value is on record?
**A.** The value was 20.6%.

**Q.** `CC[C@H]1CN2CC[C@H]1C[C@@H]2[C@@H](O)c1ccnc2ccc(OC)cc12` [Hydroquinidine] was tested. Which “cell growth inhibition ratio” value did it give?
**A.** Its value is -50.3%.

**Q.** Which “cell growth inhibition ratio” value does the source give for `CCCC[N+]1(C)[C@@H]2C[C@@H](OC(=O)[C@H](CO)c3ccccc3)C[C@H]1[C@@H]1O[C@@H]12` (stereo not given in full) [Scopolamine butylbromide] here?
**A.** Its value is 5.88%.

**Q.** `COc1ccc2c(c1)[nH]c1c(C)nccc12` [Harmine] was tested. Which “cell growth inhibition ratio” value did it give?
**A.** Its value is 58.3%.

**Q.** Which “cell growth inhibition ratio” value does the source give for `C[C@@]1(C(=O)O)CC[C@]2(C)CC[C@]3(C)C4=CC(=O)c5c(cc(O)c(O)c5C=O)[C@]4(C)CC[C@@]3(C)[C@@H]2C1` [Demethylzeylasteral] here?
**A.** The value was 13.1%.

**Q.** How did the “cell growth inhibition ratio” value turn out when `COc1cc(O)cc(/C=C/c2ccc(O)cc2)c1` [Pinostilbene] was run?
**A.** Its value is 0.271%.

**Q.** Which “cell growth inhibition ratio” value does the source give for `NCCc1ccc(O)cc1` [Tyramine] here?
**A.** Its value is 79.1%.

**Q.** For `C/C=C(\C)C(=O)N[C@@H](c1ccccc1)[C@@H](O)C(=O)O[C@H]1C[C@@]2(O)[C@@H](OC(=O)c3ccccc3)[C@@H]3[C@]4(OC(C)=O)CO[C@@H]4C[C@H](O)[C@@]3(C)C(=O)[C@H](OC(C)=O)C(=C1C)C2(C)C` [Cephalomannine], which “cell growth inhibition ratio” value is on record?
**A.** Its value is 83.8%.

**Q.** Which “cell growth inhibition ratio” value does the source give for `C[C@@]12C(=O)OC(=O)[C@]1(C)[C@H]1CC[C@@H]2O1` [Cantharidin] here?
**A.** Its value is 89%.
